Results taken from PubChem BioAssay (EPA / NIEHS).
Inconclusive means that the source gave no clear call. Such entries were picked first, then a sample of the others. A potency beside an inconclusive call is a rough fit, not a confirmed value. Active and inactive are the calls of the source. How the source made its calls: active means hit-call score of the fitted dose curve at least 0.9, where 1 is the maximum; inconclusive means response in the unintended direction; inactive means score below 0.9.

Amino acid sequences for entries named in this document (tags omitted). A change or cut given only in a name is not applied to a line headed by its entry.
UniProt P51449: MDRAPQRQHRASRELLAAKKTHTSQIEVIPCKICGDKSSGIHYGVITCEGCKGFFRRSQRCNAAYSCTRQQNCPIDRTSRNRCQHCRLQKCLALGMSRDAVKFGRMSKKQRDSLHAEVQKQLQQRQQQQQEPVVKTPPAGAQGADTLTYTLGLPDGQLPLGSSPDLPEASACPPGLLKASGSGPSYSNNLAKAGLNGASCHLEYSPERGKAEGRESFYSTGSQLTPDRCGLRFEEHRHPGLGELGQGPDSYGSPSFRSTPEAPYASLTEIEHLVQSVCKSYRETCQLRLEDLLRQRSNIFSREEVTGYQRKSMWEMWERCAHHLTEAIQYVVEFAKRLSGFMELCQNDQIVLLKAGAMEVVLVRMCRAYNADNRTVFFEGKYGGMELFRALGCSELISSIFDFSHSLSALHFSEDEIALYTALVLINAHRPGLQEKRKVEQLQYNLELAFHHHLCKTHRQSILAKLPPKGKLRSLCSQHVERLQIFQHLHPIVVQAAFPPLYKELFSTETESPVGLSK

Target: human RAR-related Orphan Receptor gamma (RORg), RORC (gene 6097) (UniProt P51449)
Assay: ATG_RORg_TRANS: Attagene TRANS-FACTORIAL HepG2 Assay for human RAR-related Orphan Receptor gamma (RORg) (AID 2283011);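 on AC50: potency for induction of reporter transcripts above DMSO so activators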
Method: ATG_TRANS is a cell-based, multiplexed-readout assay that uses HepG2, a human liver cell line, with measurements taken at 24 hours after chemical dosing in a 24-well plate.ATG_RORg_TRANS is one of 30 assay component(s) measured or calculated from the ATG_TRANS assay. It is designed to make measurements of mRNA induction, a form of inducible reporter, as detected with fluorescence intensity signals by Reverse transcription polymerase chain reaction (RT-PCR) and Capillary electrophoresis technology.Data from the assay component ATG_RORg_TRANS was analyzed into 1 assay endpoint. This assay endpoint, ATG_RORg_TRANS, was analyzed in the positive analysis fitting direction relative to DMSO as the negative control and baseline of activity. Using a type of inducible reporter, measures of mRNA for gain-of-signal activity can be used to understand the reporter gene at the transcription factor-level as they relate to the gene RORC. Furthermore, this assay endpoint can be referred to as a primary readout, because this assay has produced multiple assay endpoints where this one serves a reporter gene function. To generalize the intended target to other relatable targets, this assay endpoint is annotated to the nuclear receptor intended target family, where the subfamily is orphan.
Human liver HepG2 cells are transiently transfected with multiple reporter transcription units (MRTUs) in 6-well plates using FuGene 6 reagent (Roche; 3 ml FuGene/1 mg DNA). The MRTU constructs are regulated by a cis-regulating element (promoter). […] A major difference between the CIS and TRANS system is that in CIS activities of endogenous TFs are measured, whereas the TRANS assay evaluates changes in activities of exogenous, chimeric NR-Gal4 proteins. […] At the end of 24 hour incubation, total RNA was isolated using TriZol reagent (Invitrogen). The isolated RNA is then reverse-transcribed using oligo(dT) primer and Mo-MLV reverse transcriptase (Invitrogen) with DNAse I (Ambion) treatment for 30 min. The one-tenth of the produced cDNA was amplified by PCR using Taq DNA polymerase (Invitrogen) and two reporter sequence-specific primers. The PCR products were fluorescently labeled by primer extension with 6-arboxyfluorescein (6-FAM) 5'-labeled reporter sequence-specific primer (2 min at 95 C, 20 s at 68 C and 10 min at 72 C) and these products were digested with 5U of HpaI (New England Biolabs) for 2h at 37 C. The fragments were purified using Qiaquick PCR columns (Qiagen), analyzed on an ABI 3130xL genetic analyzer (Applied Biosystems) with peak positions identified by using a set of X-rhodamine (ROX)-labeled MapMarker1000 molecular weight standards (BioVentures). The raw capillary electrophoresis data was processed using Attagraph software (Attagene).

Row | SMILES | AC50 | outcome
1 | O=C(NC(=O)c1c(F)cccc1F)Nc1cc(Cl)c(Oc2ncc(C(F)(F)F)cc2Cl)c(Cl)c1 | inconclusive: 62.8 µM | 
4 | CC(O)C#N (stereo not given) |  | inactive
5 | Nc1ccc(Cc2ccc(N)cc2)cc1 |  | inactive
6 | O=[N+]([O-])c1c2ccccc2cc2ccccc12 | inconclusive: 99 µM | 
7 | O=C(O)C(F)(F)C(F)(F)C(F)(F)C(F)(F)C(F)(F)C(F)(F)C(F)(F)C(F)(F)F |  | inactive
9 | O=C(NC(=O)c1c(F)cccc1F)Nc1ccc(Oc2ccc(C(F)(F)F)cc2Cl)cc1F | inconclusive: 27.7 µM | 
10 | CC(C)(C1CCC(O)CC1)C1CCC(O)CC1 (stereo not given) | inconclusive: 100 µM | 
12 | CCCCC(CC)CO[N+](=O)[O-] (stereo not given) |  | inactive
14 | CCOP(=O)(OCC)Oc1ccc([N+](=O)[O-])cc1 | inconclusive: 100 µM | 
15 | Brc1c(Br)c(Br)c(Oc2c(Br)c(Br)c(Br)c(Br)c2Br)c(Br)c1Br |  | inactive
16 | CCCCN(CCCCO)N=O | inconclusive: 100 µM | 
17 | Nc1ncc([N+](=O)[O-])s1 |  | inactive
18 | Cc1cnc(C2=NC(C)(C(C)C)C(=O)N2)c(C(=O)O)c1 (stereo not given) |  | inactive
19 | O=C(O)C(F)(F)C(F)(F)C(F)(F)C(F)(F)C(F)(F)C(F)(F)C(F)(F)C(F)(F)C(F)(F)C(F)(F)F |  | inactive
20 | [F][Sn]([c]1ccccc1)([c]1ccccc1)[c]1ccccc1 | inconclusive: 0.0996 µM | 

Row | SMILES | AC50 | outcome
21 | Oc1cc(Cl)ccc1Cl | inconclusive: 100 µM | 
22 | Nc1ccc([N+](=O)[O-])cc1N |  | inactive
23 | CCOC(=O)COc1ccc(Cl)cc1Cl | inconclusive: 25.9 µM | 
24 | N#Cc1cccc(C#N)c1 | inconclusive: 99.5 µM | 
25 | CC(C)=CC1C(C(=O)OCc2coc(Cc3ccccc3)c2)C1(C)C (stereo not given) | inconclusive: 1.04 µM | 
26 | Clc1ccc(C(c2ccc(Cl)cc2)C(Cl)(Cl)Cl)cc1 | inconclusive: 2.7 µM | 
27 | C[C@H]1C(=O)O[C@@H]2CCN3CC=C(COC(=O)[C@](C)(O)[C@]1(C)O)[C@H]23 | inconclusive: 36 µM | 
28 | Cc1ccccc1CO[C@@H]1C[C@@]2(C(C)C)CC[C@]1(C)O2 | inconclusive: 50 µM | 
29 | CCc1cc(C)cc(CC)c1-c1c(OC(=O)C(C)(C)C)n2n(c1=O)CCOCC2 |  | inactive
30 | Cc1cccc(C)c1N | inconclusive: 20.5 µM | 
32 | CCN(CC)C(=S)S |  | inactive
33 | C=CC(=O)N(C)C | inconclusive: 180 µM | 
35 | CCNC(=O)NC(=O)C(C#N)=NOC |  | inactive
36 | CCCCCc1cc(O)cc(O)c1 | inconclusive: 178 µM | 
37 | CC(C#N)CCC#N (stereo not given) | inconclusive: 100 µM | 
38 | CCOP(=O)(O)C(N)=O |  | inactive
39 | COP(=O)(OC)O/C(C)=C/C(=O)N(C)C |  | inactive
40 | N#Cc1c(Cl)cccc1Cl | inconclusive: 50 µM | 

Eight structures from above, ordered by formula weight, largest number first.
Row | SMILES | AC50 | outcome
27 | C[C@H]1C(=O)O[C@@H]2CCN3CC=C(COC(=O)[C@](C)(O)[C@]1(C)O)[C@H]23 | inconclusive: 36 µM | 
35 | CCNC(=O)NC(=O)C(C#N)=NOC |  | inactive
40 | N#Cc1c(Cl)cccc1Cl | inconclusive: 50 µM | 
21 | Oc1cc(Cl)ccc1Cl | inconclusive: 100 µM | 
22 | Nc1ccc([N+](=O)[O-])cc1N |  | inactive
32 | CCN(CC)C(=S)S |  | inactive
30 | Cc1cccc(C)c1N | inconclusive: 20.5 µM | 
33 | C=CC(=O)N(C)C | inconclusive: 180 µM | 
